Tested on: Δ60HsCYP51
Experiment: CYP51 reconstitution assay (IC50), Δ60HsCYP51
Assay type: biochemical, human
Conditions: CaCYP51 over Δ60HsCYP51
Experimental: CYP51 reconstitution assays. […] Azoles were introduced using 2.5 μL of stock solutions in DMSO. […] Each IC50 experiment was performed in duplicate.

| Compound | Selectivity Hs/Ca based on IC50 |
| --- | --- |
| O=C(NCc1ccc(Cl)cc1Cl)C(Cn1ccnc1)c1ccc(Cl)cc1 (stereo not shown) [Compound 5 f, 2‐(4‐Chlorophenyl)‐N‐(2,4‐dichlorobenzyl)‐3‐(1H‐imidazol‐1‐yl)propanamide] | 8.1 fold |
| CC[C@@H]([C@H](C)O)n1ncn(-c2ccc(N3CCN(c4ccc(OC[C@@H]5CO[C@@](Cn6cncn6)(c6ccc(F)cc6F)C5)cc4)CC3)cc2)c1=O [posaconazole, reference compound] | 615 fold |
| O=C(NCc1ccc(Cl)cc1)C(Cn1ccnc1)c1ccc(Cl)cc1 (stereo not shown) [Compound 5 d, N‐(4‐Chlorobenzyl)‐2‐(4‐chlorophenyl)‐3(1H‐imidazol‐1‐yl)propanamide] | 8.6 fold |
| O=C(NCc1ccc(NS(=O)(=O)c2ccc(Cl)cc2)cc1)C(Cn1cncn1)c1ccccc1 (stereo not shown) [Compound 12 c, N‐(4‐((4‐chlorophenyl)sulfonamido)benzyl)‐2‐phenyl‐3‐(1H‐1,2,4‐triazol‐1‐yl)propanamide] | 461 fold |

From publication PMC7496091, “Small‐Molecule Inhibitors Targeting Sterol 14α‐Demethylase (CYP51): Synthesis, Molecular Modelling and Evaluation Against Candida albicans” (Chemmedchem, 2020)
